{"source": "PubChem BioAssay AID1224830 (NIAID, 2016)", "assay": "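Genes whose knock-down alters the TNF-alpha reporter response to LPS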 (primary screen)", "cells": "human THP-1 monocytic leukaemia cells, TNF dual-luciferase reporter clone, PMA-differentiated to macrophage-like cells", "reagents": "siRNA pool against human genes, 50 nM", "timing": "LPS for 4 h, given about 3 days after siRNA transfection", "challenge": "bacterial LPS (TLR4 ligand), 10 ng/ml", "measured": "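TNF firefly reporter luminescence divided by renilla, normalised to the plate median, then turned into a robust z-score for each replicate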", "reading the numbers": "TNF reporter robust z-score: higher = stronger TNF reporter response to LPS", "call rule": "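Each well counts as active if its z-score is over 2.8 or under -1.5; controls are left without a call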", "note": "The whole screen tested about 18,000 reagents; shown is an unselected part. About 2,900 of all reagents (16%) were called active. 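Calls are made per well; low scores hint the gene aids the LPS response, high scores that it dampens it.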 Entries without a mark were called inactive. Repeated entries: four replicate wells of each siRNA pool. Reagent sequences are not shown."}
{"gene knocked down": "NONO (GeneID 4841)", "TNF reporter robust z-score": -0.57}
{"gene knocked down": "NONO (GeneID 4841)", "TNF reporter robust z-score": -0.38}
{"gene knocked down": "NONO (GeneID 4841)", "TNF reporter robust z-score": 0.46}
{"gene knocked down": "NONO (GeneID 4841)", "TNF reporter robust z-score": 0.69}
{"gene knocked down": "CCDC8 (GeneID 83987)", "TNF reporter robust z-score": -0.51}
{"gene knocked down": "CCDC8 (GeneID 83987)", "TNF reporter robust z-score": 0.88}
{"gene knocked down": "CCDC8 (GeneID 83987)", "TNF reporter robust z-score": -0.67}
{"gene knocked down": "DRD1 (GeneID 1812)", "TNF reporter robust z-score": -0.88}
{"gene knocked down": "DRD1 (GeneID 1812)", "TNF reporter robust z-score": -0.41}
{"gene knocked down": "DRD1 (GeneID 1812)", "TNF reporter robust z-score": -0.24}
{"gene knocked down": "DRD1 (GeneID 1812)", "TNF reporter robust z-score": -0.35}
{"gene knocked down": "RPS27L (GeneID 51065)", "TNF reporter robust z-score": -0.15}
{"gene knocked down": "RPS27L (GeneID 51065)", "TNF reporter robust z-score": -0.31}
{"gene knocked down": "RPS27L (GeneID 51065)", "TNF reporter robust z-score": 0}
{"gene knocked down": "RPS27L (GeneID 51065)", "TNF reporter robust z-score": -0.03}
{"gene knocked down": "ZNF587 (GeneID 84914)", "TNF reporter robust z-score": -0.21}
{"gene knocked down": "ZNF587 (GeneID 84914)", "TNF reporter robust z-score": -0.03}
{"gene knocked down": "ZNF587 (GeneID 84914)", "TNF reporter robust z-score": 0.35}
{"gene knocked down": "ZNF587 (GeneID 84914)", "TNF reporter robust z-score": 0}
{"gene knocked down": "TENT4B (GeneID 64282)", "TNF reporter robust z-score": "5.31 (active)"}
{"gene knocked down": "TENT4B (GeneID 64282)", "TNF reporter robust z-score": "3.35 (active)"}
{"gene knocked down": "TENT4B (GeneID 64282)", "TNF reporter robust z-score": 2.63}
{"gene knocked down": "TENT4B (GeneID 64282)", "TNF reporter robust z-score": "3.43 (active)"}
{"gene knocked down": "MGAT4C (GeneID 25834)", "TNF reporter robust z-score": -0.84}
{"gene knocked down": "MGAT4C (GeneID 25834)", "TNF reporter robust z-score": -0.62}
{"gene knocked down": "MGAT4C (GeneID 25834)", "TNF reporter robust z-score": -0.43}
{"gene knocked down": "MGAT4C (GeneID 25834)", "TNF reporter robust z-score": -1.19}
{"gene knocked down": "DUS3L (GeneID 56931)", "TNF reporter robust z-score": "4.55 (active)"}
{"gene knocked down": "DUS3L (GeneID 56931)", "TNF reporter robust z-score": "2.95 (active)"}
{"gene knocked down": "DUS3L (GeneID 56931)", "TNF reporter robust z-score": "3.78 (active)"}
{"gene knocked down": "DUS3L (GeneID 56931)", "TNF reporter robust z-score": 1.06}
{"gene knocked down": "CARD19 (GeneID 84270)", "TNF reporter robust z-score": "2.8 (active)"}
{"gene knocked down": "CARD19 (GeneID 84270)", "TNF reporter robust z-score": 2.4}
{"gene knocked down": "CARD19 (GeneID 84270)", "TNF reporter robust z-score": "10.3 (active)"}
{"gene knocked down": "CARD19 (GeneID 84270)", "TNF reporter robust z-score": 2.37}
{"gene knocked down": "TMPRSS11B (GeneID 132724)", "TNF reporter robust z-score": 1.71}
{"gene knocked down": "TMPRSS11B (GeneID 132724)", "TNF reporter robust z-score": 1.67}
{"gene knocked down": "TMPRSS11B (GeneID 132724)", "TNF reporter robust z-score": 0.38}
{"gene knocked down": "TMPRSS11B (GeneID 132724)", "TNF reporter robust z-score": 1.77}
{"gene knocked down": "TLX1 (GeneID 3195)", "TNF reporter robust z-score": -0.36}
{"gene knocked down": "TLX1 (GeneID 3195)", "TNF reporter robust z-score": 1.24}
{"gene knocked down": "TLX1 (GeneID 3195)", "TNF reporter robust z-score": 0.8}
{"gene knocked down": "TLX1 (GeneID 3195)", "TNF reporter robust z-score": 0.71}
{"gene knocked down": "PRPF19 (GeneID 27339)", "TNF reporter robust z-score": 0.46}
{"gene knocked down": "PRPF19 (GeneID 27339)", "TNF reporter robust z-score": -1.19}
{"gene knocked down": "PRPF19 (GeneID 27339)", "TNF reporter robust z-score": -0.78}
{"gene knocked down": "EI24 (GeneID 9538)", "TNF reporter robust z-score": -0.91}
{"gene knocked down": "EI24 (GeneID 9538)", "TNF reporter robust z-score": -0.96}
{"gene knocked down": "EI24 (GeneID 9538)", "TNF reporter robust z-score": -1.15}
{"gene knocked down": "EI24 (GeneID 9538)", "TNF reporter robust z-score": -1.18}

4 of these entries, reformatted.
gene knocked down	TNF reporter robust z-score
CCDC8 (GeneID 83987)	0.88
CCDC8 (GeneID 83987)	-0.67
DRD1 (GeneID 1812)	-0.88
DRD1 (GeneID 1812)	-0.41
